Results as given in paper PMC12406269.

Protein sequences, listed by entry. Tags and fused reporters are not part of them. Lines headed by an entry give the natural chain unless they say otherwise; changes in a name come on top.
UniProt P05161: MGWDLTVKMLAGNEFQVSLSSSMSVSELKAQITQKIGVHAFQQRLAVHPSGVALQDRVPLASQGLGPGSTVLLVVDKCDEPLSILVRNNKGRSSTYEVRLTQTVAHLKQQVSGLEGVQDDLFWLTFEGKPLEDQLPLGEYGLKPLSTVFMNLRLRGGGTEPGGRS

Biological target: human ISG15 (V74D) (human) (UniProt P05161)
Assay: SEC; VHH and ISG15 mixed at the indicated molar ratios (1:2, 1:1 or 1:1:1) at 20 μM in 500 μl TBS, 20 min at room temperature; Superdex 75 10/300, fractions on SDS-PAGE; both purified

Binder	binding
VHH_(ISG15-B)-HA-His (VHH) VHH: QVQLVETGGGLVEPGGSLRLSCTVSGINFSSQFMAWFRQGPGKQREWVAIDAGEENVGYLDLVEGRFTISRDTARNTLYLQMNSLKPEDTAVYYCNIFPVLPDSRWGQGTQVTVSS	no binding (tested: 20 μM)
VHH_(ISG15-B) (F98D) (VHH) VHH: QVQLVETGGGLVEPGGSLRLSCTVSGINFSSQFMAWFRQGPGKQREWVAIDAGEENVGYLDLVEGRFTISRDTARNTLYLQMNSLKPEDTAVYYCNIDPVLPDSRWGQGTQVTVSS	no binding (tested: 20 μM)

No constants are given. Whether binding was seen depends on the method and setting. Tags and fused reporters may be left off the sequences shown.
